# According to PMC13016608:
# Target: XND-1 (C. elegans) (UniProt O45134)
# Assay: two-hybrid; GAL4 activating domain (pGAD-C1) and binding domain (pGBD-C1) fusions co-transformed into yeast PJ69-4a; growth on SC-LEU-TRP-HIS (weak interactions) and SC-LEU-TRP-ADE (strong interactions), 30°C, 72 hr
row,binding,Substance
1,binds,HIM-17 (from UniProt Q22360)

# Target: T1, SPO-11 (C. elegans) (UniProt Q22236)
# T1 sequence: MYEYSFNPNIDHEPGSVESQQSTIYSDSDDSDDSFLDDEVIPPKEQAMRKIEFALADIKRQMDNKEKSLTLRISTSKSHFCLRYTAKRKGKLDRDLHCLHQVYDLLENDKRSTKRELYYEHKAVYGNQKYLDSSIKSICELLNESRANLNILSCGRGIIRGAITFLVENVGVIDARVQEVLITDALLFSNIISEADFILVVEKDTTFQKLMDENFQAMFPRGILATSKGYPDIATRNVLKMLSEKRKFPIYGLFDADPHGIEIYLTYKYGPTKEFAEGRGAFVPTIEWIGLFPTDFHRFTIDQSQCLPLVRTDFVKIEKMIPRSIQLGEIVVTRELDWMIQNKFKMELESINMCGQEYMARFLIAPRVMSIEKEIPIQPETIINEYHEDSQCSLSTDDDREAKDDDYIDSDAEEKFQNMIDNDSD
# Assay: as above
row,binding,Substance
1,binds,DSB-1 (C. elegans)
2,binds,DSB-1 (1–145) (C. elegans) (domain or fragment)
3,no binding,DSB-2 (from UniProt D2Y8W2)
4,no binding,HIM-17 (from UniProt Q22360)

# The remaining lines, values behind:
row,Substance,binding
1,REC-1 (C. elegans),no binding
2,DSB-1 (1–114) (C. elegans) (domain or fragment),binds
3,DSB-3 (C. elegans),no binding
4,HIM-5 (C. elegans),no binding

# No constants are given. Whether binding was seen depends on the method and setting. Binding calls can cover weak binding; strength is not graded here.
